No constants are given. Whether binding was seen depends on the method and setting. Binding seen in cells or lysates may run through a third protein. A result given as binding can be weak or reduced; the word gives no strength. Tags and fused reporters may be left off the sequences shown.
T1: RPM1-interacting protein4 of Arabidopsis, N-terminally FLAG-tagged (FLAG:AtRIN4) (Arabidopsis) (UniProt Q8GYN5)
T1 sequence: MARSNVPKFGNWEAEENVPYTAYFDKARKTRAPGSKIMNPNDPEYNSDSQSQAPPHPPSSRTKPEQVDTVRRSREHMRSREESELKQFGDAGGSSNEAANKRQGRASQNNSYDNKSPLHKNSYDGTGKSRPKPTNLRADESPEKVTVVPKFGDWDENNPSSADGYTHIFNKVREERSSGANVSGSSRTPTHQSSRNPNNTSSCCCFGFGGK

B1: RPM1-interacting protein4 of Arabidopsis, N-terminally FLAG-tagged (FLAG:AtRIN4) (protein, UniProt Q8GYN5 1-211)
chain: MARSNVPKFGNWEAEENVPYTAYFDKARKTRAPGSKIMNPNDPEYNSDSQSQAPPHPPSSRTKPEQVDTVRRSREHMRSREESELKQFGDAGGSSNEAANKRQGRASQNNSYDNKSPLHKNSYDGTGKSRPKPTNLRADESPEKVTVVPKFGDWDENNPSSADGYTHIFNKVREERSSGANVSGSSRTPTHQSSRNPNNTSSCCCFGFGGK

Assays:
[1] = biological target: T1, RPM1-interacting protein4 of Arabidopsis, N-terminally FLAG-tagged (FLAG:AtRIN4) (Arabidopsis); experiment: co-IP
[2] = biological target: AvrRpm2Psa (allele of Psa biovar 5), C-terminally HA-tagged (AvrRpm2Psa:HA) (Pseudomonas syringae pv. actinidiae (biovar 5)); experiment: co-IP

Molecule	binding [1]	binding [2]
AvrRpm2Psa (allele of Psa biovar 5), C-terminally HA-tagged (AvrRpm2Psa:HA) (enzyme)	binds	–
AvrRpm2Psa^H68A, C-terminally HA-tagged (enzyme)	binds	–
AvrRpm2Psa^Y125A, C-terminally HA-tagged (enzyme)	binds	–
B1	–	binds

From doi:10.1101/2021.09.01.458589
